Results: patent US20260250270A1, “Compound Used as Kinase Inhibitor and Use Thereof” (TYK MEDICINES, INC., priority 2022, published 2026)
Some results were stated once for a whole list of compounds, not compound by compound.

Test system: Ba/F3 EGFR D770_N771 ins SVD
Experiment: In vivo pharmacodynamic study, Ba/F3-EGFR-D770_N771 ins SVD subcutaneous xenograft model
Parameters: species or system nude mice
Settings: same dose (30 mg/kg), Ba/F3-EGFR-D770_N771 ins SVD cell transplantation model
Experimental: The experimental design and results were shown in Table 9, wherein P.O referred to administered orally; QD: once a day; TGI (Tumor volume inhibition rate)=(1-Tumor weight of the treatment group/Tumor weight of the control group)*100%. The cell line Ba/F3 EGFR D770_N771 ins SVD was cultured in 37° C., 5% CO2 with RPMI1640+10% fetal bovine serum+1% double antibody, and passaged 2-3 times a week. When the cell saturation was 80-90% and the number of cells met the requirement, the cells were collected. 0.2 mL (1*10^6) cells were subcutaneously inoculated into the right back of 6-8 weeks old female nude mice weighing 18-22 g. When the average tumor volume reached approximately 150-200 mm^3, grouping and drug administration started. Before the start of drug administration, all animals were weighed and the tumor volume was measured with vernier calipers. Mice were randomly grouped according to tumor volume to ensure that tumor volumes were similar between groups. Three mice in each group were administered orally once daily, and the inoculation site was observed after administration. Tumor volume and mouse body weight were measured twice a week.

SMILES | tumor inhibition rate increase versus trans-structure compounds of WO2021180238
C=CC(=O)Nc1cc(Nc2ncc(-c3nnc(C)o3)c(-c3cn(C)c4ccccc34)n2)c(OC)cc1N(C)[C@@H]1[C@@H]2CN(C)C[C@@H]21 [Example 5] | more than 1.6 fold
C=CC(=O)Nc1cc(Nc2ncc(C(=O)OC(C)C)c(-c3cn(C)c4ccccc34)n2)c(OC)cc1N(C)[C@@H]1[C@@H]2CN(C)C[C@@H]21 [Example 1] | more than 1.6 fold
